Measurements reported in paper PMC6521037.
These are yes or no findings as the source states them, for the method shown. Binding seen in cells or lysates may run through a third protein. These calls come from enrichment with a bait or labelling near it, and not all partners need be listed.

Amino acid sequences for entries named in this document (tags omitted). A change or cut given only in a name is not applied to a line headed by its entry. Chains listed by the source or under a name are the forms on record and can include a tag or linker.
UniProt Q9HAU4: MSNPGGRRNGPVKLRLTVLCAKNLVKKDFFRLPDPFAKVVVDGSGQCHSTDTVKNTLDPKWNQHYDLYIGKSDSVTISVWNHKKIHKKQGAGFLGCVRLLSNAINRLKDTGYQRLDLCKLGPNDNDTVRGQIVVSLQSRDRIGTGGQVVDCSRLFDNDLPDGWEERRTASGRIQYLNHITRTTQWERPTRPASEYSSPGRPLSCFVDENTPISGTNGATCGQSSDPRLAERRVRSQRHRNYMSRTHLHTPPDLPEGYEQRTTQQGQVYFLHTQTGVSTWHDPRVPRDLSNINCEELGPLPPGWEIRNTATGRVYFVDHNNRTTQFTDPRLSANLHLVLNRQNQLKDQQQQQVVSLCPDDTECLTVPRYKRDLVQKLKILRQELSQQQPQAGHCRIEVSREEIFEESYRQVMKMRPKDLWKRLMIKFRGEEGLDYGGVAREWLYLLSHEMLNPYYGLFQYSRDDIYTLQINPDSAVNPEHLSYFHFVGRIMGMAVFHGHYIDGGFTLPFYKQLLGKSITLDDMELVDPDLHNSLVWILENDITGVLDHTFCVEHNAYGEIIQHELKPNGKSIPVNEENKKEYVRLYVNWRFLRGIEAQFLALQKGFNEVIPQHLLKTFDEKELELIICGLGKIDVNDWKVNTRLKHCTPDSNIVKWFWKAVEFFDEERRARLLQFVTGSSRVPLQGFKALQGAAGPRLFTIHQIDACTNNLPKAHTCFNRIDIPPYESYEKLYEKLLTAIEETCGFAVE
MYC-tagged SMURF2, catalytically inactive Cys716Gly mutant (Q9HAU4, form named): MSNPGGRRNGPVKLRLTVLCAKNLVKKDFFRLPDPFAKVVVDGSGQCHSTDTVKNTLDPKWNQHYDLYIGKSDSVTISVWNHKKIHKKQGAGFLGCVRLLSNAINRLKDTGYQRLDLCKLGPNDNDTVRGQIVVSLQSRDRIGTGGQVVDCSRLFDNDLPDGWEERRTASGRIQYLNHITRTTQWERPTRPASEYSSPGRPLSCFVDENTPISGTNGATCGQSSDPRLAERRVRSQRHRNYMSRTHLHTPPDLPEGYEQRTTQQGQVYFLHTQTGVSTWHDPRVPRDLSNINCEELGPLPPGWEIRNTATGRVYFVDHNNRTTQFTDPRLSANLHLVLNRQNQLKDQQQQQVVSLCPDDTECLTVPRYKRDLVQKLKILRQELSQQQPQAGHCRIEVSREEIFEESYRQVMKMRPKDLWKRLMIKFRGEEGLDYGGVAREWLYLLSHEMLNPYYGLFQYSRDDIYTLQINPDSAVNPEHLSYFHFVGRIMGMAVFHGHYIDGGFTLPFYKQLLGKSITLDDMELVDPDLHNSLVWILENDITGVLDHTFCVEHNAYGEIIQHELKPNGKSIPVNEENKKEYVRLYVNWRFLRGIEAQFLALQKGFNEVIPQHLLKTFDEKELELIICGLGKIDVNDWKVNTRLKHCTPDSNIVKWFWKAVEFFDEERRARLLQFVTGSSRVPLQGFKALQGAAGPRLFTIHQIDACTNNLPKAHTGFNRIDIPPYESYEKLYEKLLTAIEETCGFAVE
UniProt P63104: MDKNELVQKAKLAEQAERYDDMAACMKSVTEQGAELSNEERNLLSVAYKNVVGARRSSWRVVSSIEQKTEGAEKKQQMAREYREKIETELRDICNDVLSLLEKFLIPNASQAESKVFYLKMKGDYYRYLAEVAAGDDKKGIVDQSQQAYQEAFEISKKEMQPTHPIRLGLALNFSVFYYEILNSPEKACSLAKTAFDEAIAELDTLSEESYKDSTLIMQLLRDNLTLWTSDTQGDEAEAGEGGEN
UniProt P62258: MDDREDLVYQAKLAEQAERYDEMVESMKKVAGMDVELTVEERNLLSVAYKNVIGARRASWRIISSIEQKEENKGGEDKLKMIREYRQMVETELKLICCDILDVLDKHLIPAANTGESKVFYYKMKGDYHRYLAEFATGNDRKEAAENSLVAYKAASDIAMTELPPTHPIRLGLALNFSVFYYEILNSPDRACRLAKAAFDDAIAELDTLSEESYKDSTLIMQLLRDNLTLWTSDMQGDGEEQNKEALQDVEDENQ

B1: 14-3-3 theta (protein, UniProt P27348 1-245)
chain: MEKTELIQKAKLAEQAERYDDMATCMKAVTEQGAELSNEERNLLSVAYKNVVGGRRSAWRVISSIEQKTDTSDKKLQLIKDYREKVESELRSICTTVLELLDKYLIANATNPESKVFYLKMKGDYFRYLAEVACGDDRKQTIDNSQGAYQEAFDISKKEMQPTHPIRLGLALNFSVFYYEILNNPELACTLAKTAFDEAIAELDTLNEDSYKDSTLIMQLLRDNLTLWTSDSAGEECDAAEGAEN
B2: 14-3-3 gamma (protein, UniProt P61981 1-247)
chain: MVDREQLVQKARLAEQAERYDDMAAAMKNVTELNEPLSNEERNLLSVAYKNVVGARRSSWRVISSIEQKTSADGNEKKIEMVRAYREKIEKELEAVCQDVLSLLDNYLIKNCSETQYESKVFYLKMKGDYYRYLAEVATGEKRATVVESSEKAYSEAHEISKEHMQPTHPIRLGLALNYSVFYYEIQNAPEQACHLAKTAFDDAIAELDTLNEDSYKDSTLIMQLLRDNLTLWTSDQQDDDGGEGNN

How the values were obtained:
[1] = target: MYC-tagged SMURF2, catalytically inactive Cys716Gly mutant (human) (UniProt Q9HAU4); test: affinity purification with mass spectrometry; MYC-SMURF2 (WT or CG) expressed in HEK293T, 26 h after transfection; 1% NP-40 lysate, pre-cleared; anti-MYC antibody (9E10) and Protein-G Sepharose; eluted with 8 M urea; LC-MS/MS; empty MYC vector as control; two independent MS analyses
[2] = target: MYC-tagged SMURF2, wild-type (human) (UniProt Q9HAU4); test: as above

Row | Molecule | binding [1] | binding [2]
1 | 14-3-3 Zeta/delta (from UniProt P63104 1-245) | binds | binds
2 | 14-3-3 epsilon (from UniProt P62258 1-255) | binds | binds
3 | B1 | binds | binds
4 | B2 | binds | binds
